These are yes or no findings as the source states them, for the method shown. Binding calls can cover weak binding; strength is not graded here. For some of these results: Where a sequence is shown, tags or fusion partners need not be part of it. For some of these results: Binding seen in cells or lysates may run through a third protein.

Sequences of proteins named here, by UniProt entry; tags and fusion partners are left off. A change or cut given only in a name is not applied to a line headed by its entry.
UniProt P31749: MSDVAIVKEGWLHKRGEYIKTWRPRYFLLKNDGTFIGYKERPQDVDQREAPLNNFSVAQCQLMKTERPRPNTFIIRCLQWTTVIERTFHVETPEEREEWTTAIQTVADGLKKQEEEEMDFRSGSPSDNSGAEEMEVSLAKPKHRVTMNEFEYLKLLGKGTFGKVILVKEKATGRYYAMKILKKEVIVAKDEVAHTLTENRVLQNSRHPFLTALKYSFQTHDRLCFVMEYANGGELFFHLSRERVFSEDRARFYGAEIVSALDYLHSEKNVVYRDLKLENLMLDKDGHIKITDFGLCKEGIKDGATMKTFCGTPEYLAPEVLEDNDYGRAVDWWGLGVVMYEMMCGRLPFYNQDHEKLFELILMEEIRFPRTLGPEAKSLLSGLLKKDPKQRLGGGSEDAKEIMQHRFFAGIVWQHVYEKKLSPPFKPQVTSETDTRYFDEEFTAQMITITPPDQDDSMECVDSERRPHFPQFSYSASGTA

Experiment [1] has as its target T1, FLAG-tagged FKBP51 (expressed in cells) (UniProt Q13451).
T1 sequence: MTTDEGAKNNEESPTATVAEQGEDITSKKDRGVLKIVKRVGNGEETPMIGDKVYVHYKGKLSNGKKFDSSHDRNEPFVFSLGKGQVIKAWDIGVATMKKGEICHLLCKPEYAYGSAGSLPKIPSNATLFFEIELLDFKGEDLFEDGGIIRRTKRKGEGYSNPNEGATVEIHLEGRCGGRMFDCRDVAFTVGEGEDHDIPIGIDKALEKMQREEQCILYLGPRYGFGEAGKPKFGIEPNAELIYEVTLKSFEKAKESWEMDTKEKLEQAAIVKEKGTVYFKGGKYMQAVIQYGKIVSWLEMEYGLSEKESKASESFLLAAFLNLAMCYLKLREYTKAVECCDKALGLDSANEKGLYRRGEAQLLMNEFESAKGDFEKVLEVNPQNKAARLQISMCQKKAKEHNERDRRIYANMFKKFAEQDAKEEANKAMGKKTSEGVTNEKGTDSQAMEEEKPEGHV
In words: co-IP; HEK293T cells co-transfected; lysis in NETN buffer; FLAG or HA affinity resin overnight at 4 °C, 5 washes, Western blot; in some panels cells were treated before lysis with FK1706, FK506 or rapamycin (1 µM, 1 h), AT7867 (10 µM, 1 h), wortmannin, starvation or FCS. On the technique in general: A western blot detects proteins with antibodies after separation by electrophoresis.

The next experiment has as its target GST_Akt1^S473D (UniProt P31749). Nature of the experiment: pull-down; GST pull-down: 15 µM FKBPs or Cyp40 with 22 µM GST_Akt1 S473D or GST_Akt1 S473D_ΔPH on glutathione resin, 3 h, 4 °C, NETN buffer (20 mM Tris-HCl pH 8.0, 100 mM NaCl, 1 mM EDTA, 0.5% igepal); AMP-PNP (5 mM), rapamycin (1 µM) or DMSO where indicated; Western blot; both purified.
In experiment [2] the target is HA-tagged S6K (p70 ribosomal S6 kinase). Nature of the experiment: co-IP; HeLa cells co-transfected with FLAG-tagged FKBPs and HA-tagged S6K, treated with rapamycin (25 nM) or DMSO for 60 min; lysates immunoprecipitated, Western blot.
A further experiment has as its target GST_Akt1^S473D_ΔPH. Nature of the experiment: pull-down; GST pull-down: 15 µM FKBPs or Cyp40 with 22 µM GST_Akt1 S473D or GST_Akt1 S473D_ΔPH on glutathione resin, 3 h, 4 °C, NETN buffer (20 mM Tris-HCl pH 8.0, 100 mM NaCl, 1 mM EDTA, 0.5% igepal); AMP-PNP (5 mM), rapamycin (1 µM) or DMSO where indicated; Western blot; both purified.

For GST-tagged Akt1 (expressed in HEK293T), the binding result in experiment [1] is on record as “binds”. On to “GST-ΔN_SGK (wild type) (domain or fragment)”, for which, in experiment [1], the binding result is listed as “binds”. Same read-out and setting: next, GST-ΔN_SGK^S422D (domain or fragment): “binds”. As for “purified PPIase-deficient mutant of the isolated FK506-binding domain of FKBP51 (from UniProt Q13451) (domain or fragment)”, the binding result with GST_Akt1^S473D is listed as “binds”.

B1: purified FKBP52 (natural protein, UniProt Q02790 1-459, looked up)
chain: MTAEEMKATESGAQSAPLPMEGVDISPKQDEGVLKVIKREGTGTEMPMIGDRVFVHYTGWLLDGTKFDSSLDRKDKFSFDLGKGEVIKAWDIAIATMKVGEVCHITCKPEYAYGSAGSPPKIPPNATLVFEVELFEFKGEDLTEEEDGGIIRRIQTRGEGYAKPNEGAIVEVALEGYYKDKLFDQRELRFEIGEGENLDLPYGLERAIQRMEKGEHSIVYLKPSYAFGSVGKEKFQIPPNAELKYELHLKSFEKAKESWEMNSEEKLEQSTIVKERGTVYFKEGKYKQALLQYKKIVSWLEYESSFSNEEAQKAQALRLASHLNLAMCHLKLQAFSAAIESCNKALELDSNNEKGLFRRGEAHLAVNDFELARADFQKVLQLYPNNKAAKTQLAVCQQRIRRQLAREKKLYANMFERLAEEENKAKAEASSGDHPTDTEMKEEQKSNTAGSQSQVETEA
notes: FKBP52, His-tagged full length
Regarding B1, the binding entry in experiment [2] is listed as “binds”.

B2: FLAG-tagged FKBP51 (expressed in cells) (protein, UniProt Q13451 1-457)
chain: MTTDEGAKNNEESPTATVAEQGEDITSKKDRGVLKIVKRVGNGEETPMIGDKVYVHYKGKLSNGKKFDSSHDRNEPFVFSLGKGQVIKAWDIGVATMKKGEICHLLCKPEYAYGSAGSLPKIPSNATLFFEIELLDFKGEDLFEDGGIIRRTKRKGEGYSNPNEGATVEIHLEGRCGGRMFDCRDVAFTVGEGEDHDIPIGIDKALEKMQREEQCILYLGPRYGFGEAGKPKFGIEPNAELIYEVTLKSFEKAKESWEMDTKEKLEQAAIVKEKGTVYFKGGKYMQAVIQYGKIVSWLEMEYGLSEKESKASESFLLAAFLNLAMCYLKLREYTKAVECCDKALGLDSANEKGLYRRGEAQLLMNEFESAKGDFEKVLEVNPQNKAARLQISMCQKKAKEHNERDRRIYANMFKKFAEQDAKEEANKAMGKKTSEGVTNEKGTDSQAMEEEKPEGHV
On to B2, for which, in experiment [2], the binding entry is listed as “binds”.

B3: purified FLAG-tagged FKBP51 (natural protein, UniProt Q13451 1-457, looked up)
chain: MTTDEGAKNNEESPTATVAEQGEDITSKKDRGVLKIVKRVGNGEETPMIGDKVYVHYKGKLSNGKKFDSSHDRNEPFVFSLGKGQVIKAWDIGVATMKKGEICHLLCKPEYAYGSAGSLPKIPSNATLFFEIELLDFKGEDLFEDGGIIRRTKRKGEGYSNPNEGATVEIHLEGRCGGRMFDCRDVAFTVGEGEDHDIPIGIDKALEKMQREEQCILYLGPRYGFGEAGKPKFGIEPNAELIYEVTLKSFEKAKESWEMDTKEKLEQAAIVKEKGTVYFKGGKYMQAVIQYGKIVSWLEMEYGLSEKESKASESFLLAAFLNLAMCYLKLREYTKAVECCDKALGLDSANEKGLYRRGEAQLLMNEFESAKGDFEKVLEVNPQNKAARLQISMCQKKAKEHNERDRRIYANMFKKFAEQDAKEEANKAMGKKTSEGVTNEKGTDSQAMEEEKPEGHV
notes: FKBP51, His-tagged full length; also called FKBP51_FLAG; purified FKBP51
For the molecule B3, the binding result with GST_Akt1^S473D_ΔPH was “binds”.

The values are drawn from PMC3585324, “InterAKTions with FKBPs - Mutational and Pharmacological Exploration” (PLoS ONE, 2013).
